Experimental data: the supplement of paper PMC11006884
The list shows a part of the results, in another mix than the full data.

Protein sequences, listed by entry. Tags and fused reporters are not part of them. Lines headed by an entry give the natural chain unless they say otherwise; changes in a name come on top.
UniProt P49327, whole entry, looked up: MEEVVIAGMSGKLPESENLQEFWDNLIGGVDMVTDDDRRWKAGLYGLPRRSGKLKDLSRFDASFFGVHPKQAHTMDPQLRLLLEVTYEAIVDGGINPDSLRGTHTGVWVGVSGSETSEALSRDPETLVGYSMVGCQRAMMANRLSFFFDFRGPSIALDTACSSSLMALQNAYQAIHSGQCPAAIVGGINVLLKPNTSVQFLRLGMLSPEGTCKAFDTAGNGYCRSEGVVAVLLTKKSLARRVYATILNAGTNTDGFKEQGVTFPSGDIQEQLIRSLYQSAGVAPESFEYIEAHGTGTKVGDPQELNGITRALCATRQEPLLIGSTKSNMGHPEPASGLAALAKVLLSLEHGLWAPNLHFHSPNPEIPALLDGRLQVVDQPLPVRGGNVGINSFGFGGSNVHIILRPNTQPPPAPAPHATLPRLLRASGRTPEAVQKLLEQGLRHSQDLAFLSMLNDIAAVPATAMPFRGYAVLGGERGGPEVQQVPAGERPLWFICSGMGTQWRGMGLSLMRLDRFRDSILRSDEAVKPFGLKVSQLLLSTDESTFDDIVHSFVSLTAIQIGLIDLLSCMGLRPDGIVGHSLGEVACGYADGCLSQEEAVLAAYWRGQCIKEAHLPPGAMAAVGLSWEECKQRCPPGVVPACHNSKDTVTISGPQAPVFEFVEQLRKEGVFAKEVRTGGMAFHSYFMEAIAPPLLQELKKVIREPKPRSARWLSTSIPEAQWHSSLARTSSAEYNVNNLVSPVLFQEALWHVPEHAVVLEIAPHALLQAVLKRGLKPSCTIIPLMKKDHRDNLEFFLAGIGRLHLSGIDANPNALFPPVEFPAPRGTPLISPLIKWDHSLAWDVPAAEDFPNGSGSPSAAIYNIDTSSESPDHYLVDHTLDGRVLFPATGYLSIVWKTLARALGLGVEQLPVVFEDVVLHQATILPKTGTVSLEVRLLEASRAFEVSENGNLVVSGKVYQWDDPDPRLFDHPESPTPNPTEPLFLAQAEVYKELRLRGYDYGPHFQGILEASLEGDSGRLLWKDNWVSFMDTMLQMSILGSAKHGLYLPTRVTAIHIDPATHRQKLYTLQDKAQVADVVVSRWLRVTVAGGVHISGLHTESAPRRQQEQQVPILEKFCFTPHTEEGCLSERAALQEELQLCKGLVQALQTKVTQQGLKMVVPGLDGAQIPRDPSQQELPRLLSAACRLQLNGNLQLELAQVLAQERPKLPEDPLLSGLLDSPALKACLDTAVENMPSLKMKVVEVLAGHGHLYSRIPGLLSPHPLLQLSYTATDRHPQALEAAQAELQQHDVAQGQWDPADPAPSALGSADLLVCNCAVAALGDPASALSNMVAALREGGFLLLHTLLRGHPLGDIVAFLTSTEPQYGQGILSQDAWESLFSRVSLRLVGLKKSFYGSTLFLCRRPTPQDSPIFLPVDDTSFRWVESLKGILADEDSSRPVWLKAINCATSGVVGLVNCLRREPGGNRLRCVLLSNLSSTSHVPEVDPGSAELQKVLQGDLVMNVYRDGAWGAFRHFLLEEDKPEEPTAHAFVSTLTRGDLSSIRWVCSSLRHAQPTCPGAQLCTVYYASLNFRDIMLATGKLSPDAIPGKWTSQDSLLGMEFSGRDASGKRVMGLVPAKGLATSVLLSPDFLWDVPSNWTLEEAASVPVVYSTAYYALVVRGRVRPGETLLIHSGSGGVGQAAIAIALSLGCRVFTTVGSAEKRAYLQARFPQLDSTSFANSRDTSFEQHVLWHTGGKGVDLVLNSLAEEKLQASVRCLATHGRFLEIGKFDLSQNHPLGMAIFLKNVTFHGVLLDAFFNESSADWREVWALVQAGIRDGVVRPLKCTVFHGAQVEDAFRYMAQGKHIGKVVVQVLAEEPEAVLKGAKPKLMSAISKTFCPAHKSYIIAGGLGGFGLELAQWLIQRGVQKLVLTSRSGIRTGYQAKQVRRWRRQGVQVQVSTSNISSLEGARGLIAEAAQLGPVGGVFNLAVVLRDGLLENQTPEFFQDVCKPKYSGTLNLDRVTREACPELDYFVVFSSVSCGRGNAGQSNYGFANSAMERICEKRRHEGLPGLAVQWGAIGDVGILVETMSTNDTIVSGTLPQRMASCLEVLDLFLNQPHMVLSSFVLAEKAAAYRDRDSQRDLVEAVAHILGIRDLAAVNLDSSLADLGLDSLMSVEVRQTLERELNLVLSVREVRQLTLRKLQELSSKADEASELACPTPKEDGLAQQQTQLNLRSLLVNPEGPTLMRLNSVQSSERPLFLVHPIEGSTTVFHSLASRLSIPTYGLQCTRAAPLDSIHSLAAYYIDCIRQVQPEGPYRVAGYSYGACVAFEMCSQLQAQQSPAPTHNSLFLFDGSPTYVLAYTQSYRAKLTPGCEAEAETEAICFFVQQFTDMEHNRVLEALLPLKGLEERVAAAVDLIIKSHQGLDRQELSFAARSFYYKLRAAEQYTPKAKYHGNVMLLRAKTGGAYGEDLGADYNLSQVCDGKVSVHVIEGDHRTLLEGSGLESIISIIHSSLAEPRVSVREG
UniProt P51570: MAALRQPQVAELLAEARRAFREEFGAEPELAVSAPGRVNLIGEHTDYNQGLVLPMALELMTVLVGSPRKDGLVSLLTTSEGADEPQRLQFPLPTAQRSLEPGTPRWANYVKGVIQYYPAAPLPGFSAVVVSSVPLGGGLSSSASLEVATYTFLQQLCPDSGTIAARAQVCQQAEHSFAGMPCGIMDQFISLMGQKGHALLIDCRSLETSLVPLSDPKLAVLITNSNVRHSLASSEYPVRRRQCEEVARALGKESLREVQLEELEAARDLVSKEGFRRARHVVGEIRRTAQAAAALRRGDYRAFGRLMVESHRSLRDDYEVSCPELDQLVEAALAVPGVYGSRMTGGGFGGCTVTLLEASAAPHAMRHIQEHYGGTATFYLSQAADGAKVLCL
UniProt P49585: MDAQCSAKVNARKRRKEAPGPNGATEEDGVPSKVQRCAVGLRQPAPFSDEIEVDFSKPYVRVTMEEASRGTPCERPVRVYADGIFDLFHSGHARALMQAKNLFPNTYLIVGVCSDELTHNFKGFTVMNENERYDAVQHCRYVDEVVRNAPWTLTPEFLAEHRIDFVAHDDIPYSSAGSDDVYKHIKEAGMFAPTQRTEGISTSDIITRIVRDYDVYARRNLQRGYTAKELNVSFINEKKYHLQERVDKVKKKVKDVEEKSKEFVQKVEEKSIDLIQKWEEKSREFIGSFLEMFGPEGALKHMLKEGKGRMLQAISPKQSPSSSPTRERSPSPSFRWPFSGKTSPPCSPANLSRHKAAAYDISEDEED
UniProt P46459: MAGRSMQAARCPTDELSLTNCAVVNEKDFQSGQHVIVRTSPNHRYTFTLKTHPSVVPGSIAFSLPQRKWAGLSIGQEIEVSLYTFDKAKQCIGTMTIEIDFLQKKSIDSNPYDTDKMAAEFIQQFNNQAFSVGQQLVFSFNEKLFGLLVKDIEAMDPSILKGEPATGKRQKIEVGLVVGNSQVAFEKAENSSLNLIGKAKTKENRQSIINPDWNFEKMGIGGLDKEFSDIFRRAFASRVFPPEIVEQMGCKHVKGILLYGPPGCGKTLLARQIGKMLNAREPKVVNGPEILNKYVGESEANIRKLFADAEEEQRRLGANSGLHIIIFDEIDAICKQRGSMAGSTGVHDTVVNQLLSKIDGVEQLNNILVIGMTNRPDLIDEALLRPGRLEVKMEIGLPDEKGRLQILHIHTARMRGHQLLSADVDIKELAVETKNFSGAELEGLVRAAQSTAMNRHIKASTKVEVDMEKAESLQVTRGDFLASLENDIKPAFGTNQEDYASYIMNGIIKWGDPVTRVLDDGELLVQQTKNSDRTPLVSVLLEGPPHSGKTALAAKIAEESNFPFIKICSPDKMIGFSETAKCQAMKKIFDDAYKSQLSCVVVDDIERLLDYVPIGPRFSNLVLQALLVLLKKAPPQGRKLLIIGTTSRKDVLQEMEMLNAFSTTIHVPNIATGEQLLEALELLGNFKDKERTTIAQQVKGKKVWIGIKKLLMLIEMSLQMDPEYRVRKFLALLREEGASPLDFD
UniProt P49591: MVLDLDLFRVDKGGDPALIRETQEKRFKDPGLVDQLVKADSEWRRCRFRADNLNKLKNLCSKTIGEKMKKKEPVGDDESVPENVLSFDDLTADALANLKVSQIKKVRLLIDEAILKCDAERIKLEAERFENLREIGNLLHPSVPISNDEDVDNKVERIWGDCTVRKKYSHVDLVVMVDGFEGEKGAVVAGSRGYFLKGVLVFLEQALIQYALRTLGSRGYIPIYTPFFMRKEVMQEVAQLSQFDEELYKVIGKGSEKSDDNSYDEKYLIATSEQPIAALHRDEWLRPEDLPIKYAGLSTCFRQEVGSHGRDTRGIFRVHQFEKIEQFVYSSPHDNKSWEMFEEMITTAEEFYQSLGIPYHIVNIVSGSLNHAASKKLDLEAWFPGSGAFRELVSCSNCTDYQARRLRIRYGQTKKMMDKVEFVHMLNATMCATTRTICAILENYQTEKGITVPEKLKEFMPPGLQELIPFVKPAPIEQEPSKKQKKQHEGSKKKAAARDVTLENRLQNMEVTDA
UniProt P51610: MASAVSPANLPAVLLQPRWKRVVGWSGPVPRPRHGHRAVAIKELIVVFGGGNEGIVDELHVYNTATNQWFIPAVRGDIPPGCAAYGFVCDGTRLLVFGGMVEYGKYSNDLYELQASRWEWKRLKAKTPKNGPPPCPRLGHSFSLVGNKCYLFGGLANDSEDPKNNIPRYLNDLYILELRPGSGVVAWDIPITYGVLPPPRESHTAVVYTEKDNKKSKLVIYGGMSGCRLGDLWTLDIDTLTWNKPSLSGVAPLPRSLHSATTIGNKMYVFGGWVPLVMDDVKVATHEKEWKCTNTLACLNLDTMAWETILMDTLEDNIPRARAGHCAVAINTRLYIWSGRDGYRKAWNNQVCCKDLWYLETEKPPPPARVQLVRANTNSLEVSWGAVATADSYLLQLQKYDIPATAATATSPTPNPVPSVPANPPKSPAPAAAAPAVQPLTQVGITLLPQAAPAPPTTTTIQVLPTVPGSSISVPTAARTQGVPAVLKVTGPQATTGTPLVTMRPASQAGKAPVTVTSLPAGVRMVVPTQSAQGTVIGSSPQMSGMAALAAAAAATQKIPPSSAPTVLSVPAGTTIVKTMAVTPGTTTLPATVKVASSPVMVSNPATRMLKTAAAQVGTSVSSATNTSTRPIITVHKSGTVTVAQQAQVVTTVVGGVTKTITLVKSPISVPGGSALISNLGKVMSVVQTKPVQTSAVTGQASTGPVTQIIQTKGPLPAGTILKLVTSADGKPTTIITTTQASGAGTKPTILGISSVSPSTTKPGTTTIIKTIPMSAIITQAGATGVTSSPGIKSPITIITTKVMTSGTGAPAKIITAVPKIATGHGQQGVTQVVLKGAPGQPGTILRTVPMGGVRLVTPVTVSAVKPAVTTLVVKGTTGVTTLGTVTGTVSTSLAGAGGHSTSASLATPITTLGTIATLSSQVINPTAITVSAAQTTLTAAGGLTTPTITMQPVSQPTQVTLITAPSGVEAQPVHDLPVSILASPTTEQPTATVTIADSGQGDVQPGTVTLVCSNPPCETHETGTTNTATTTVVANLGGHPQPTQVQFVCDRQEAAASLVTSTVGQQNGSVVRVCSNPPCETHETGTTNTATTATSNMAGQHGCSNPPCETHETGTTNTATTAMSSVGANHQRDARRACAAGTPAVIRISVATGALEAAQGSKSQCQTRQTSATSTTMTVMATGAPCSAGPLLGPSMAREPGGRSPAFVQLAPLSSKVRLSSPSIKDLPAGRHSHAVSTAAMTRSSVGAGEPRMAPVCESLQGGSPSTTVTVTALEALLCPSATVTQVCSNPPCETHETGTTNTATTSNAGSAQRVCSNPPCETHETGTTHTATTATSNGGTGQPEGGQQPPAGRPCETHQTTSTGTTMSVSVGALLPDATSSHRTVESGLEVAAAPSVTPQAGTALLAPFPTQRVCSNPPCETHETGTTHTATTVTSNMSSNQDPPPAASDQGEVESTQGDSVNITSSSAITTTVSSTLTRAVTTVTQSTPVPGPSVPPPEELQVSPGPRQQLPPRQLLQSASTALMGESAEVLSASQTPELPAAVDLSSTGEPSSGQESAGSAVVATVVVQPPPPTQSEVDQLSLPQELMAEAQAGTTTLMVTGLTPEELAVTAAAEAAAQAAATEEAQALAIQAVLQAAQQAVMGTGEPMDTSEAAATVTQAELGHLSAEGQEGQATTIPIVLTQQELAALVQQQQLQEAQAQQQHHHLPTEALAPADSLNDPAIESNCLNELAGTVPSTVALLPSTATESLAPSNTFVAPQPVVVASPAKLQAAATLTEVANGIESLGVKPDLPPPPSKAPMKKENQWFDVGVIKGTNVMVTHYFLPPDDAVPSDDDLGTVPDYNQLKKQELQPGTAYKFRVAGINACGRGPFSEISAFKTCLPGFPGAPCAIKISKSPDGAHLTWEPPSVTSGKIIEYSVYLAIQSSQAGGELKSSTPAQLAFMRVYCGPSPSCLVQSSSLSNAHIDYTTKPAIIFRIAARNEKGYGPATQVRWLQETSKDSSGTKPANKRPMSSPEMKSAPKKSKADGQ

Compound: COC(=O)C#Cc1ccccc1 [methyl 3-phenylpropiolate]
Assay: log2 ratio of iodoacetamide-alkyne labeling of the cysteine site, DMSO over compound (competition); higher = stronger covalent engagement of the cysteine by the compound, active = 1 or more
Conditions: 500 µM; treatment time 1 h; system: HEK293T cell lysate
Outline: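 HEK293T lysate (2 mg/mL) was incubated with electrophile (500 µM) or vehicle for 1 h at ambient temperature and then with iodoacetamide alkyne for 1 h. Labelled proteins were clicked to sCIP-TMT reagents, pooled, digested, enriched on streptavidin and measured by Orbitrap Eclipse LC-MS/MS with FAIMS, with FragPipe quantification. The per-cysteine log2 competition ratio is mean control-channel reporter intensity over mean compound-channel reporter intensity. Across three replicates with duplicate channels, cysteines quantified in only one replicate were excluded.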

log2 ratio of iodoacetamide-alkyne labeling, inactive:
FASN C2202 (UniProt P49327) 0.222
FASN C1141 (UniProt P49327) 0.536
FASN C1186 (UniProt P49327) -0.0549
GALK1 C182 (UniProt P51570) 0.0992
PCYT1A C5 (UniProt P49585) 0.879
NSF C568 (UniProt P46459) 0.221
FASN C2359 (UniProt P49327) 0.113
MKI67 C1285 (UniProt P46013) 0.653
UniProt P49591_C300 0.0415
HCFC1 C149 (UniProt P51610) 0.469
FASN C2273 (UniProt P49327) 0.224
PREP C57 (UniProt P48147) 0.139
PTDSS1 C419 (UniProt P48651) 0.275
MRPL19 C248 (UniProt P49406) 0.128
GPD2 C285 (UniProt P43304) 0.152

Already shown: entries from further up.
log2 ratio of iodoacetamide-alkyne labeling, inactive:
HCFC1 C149 (UniProt P51610) 0.469
FASN C2273 (UniProt P49327) 0.224
